# Cleaved PARP after 72 h of treatment

Data from the primary screen of doi:10.1371/journal.pone.0140310, rounded.

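Human melanoma cells were exposed to two drugs together for 72 h in 1,536-well plates and read by automated microscopy after fixing and staining. Each value is the cleaved-PARP-positive fraction of nuclei relative to DMSO-treated wells, in %, so that 100 equals the control and higher values mean more apoptosis. Concentrations were fixed for each drug; these are the higher of two levels. These are primary screening values without error estimates. Basal and induced levels differ widely between cell lines.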
This is part of the screen, not chosen by result.

All values are for the listed drug together with everolimus (0.1 µM): CO[C@H]1C[C@@H]2CC[C@@H](C)[C@@](O)(O2)C(=O)C(=O)N2CCCC[C@H]2C(=O)O[C@H]([C@H](C)C[C@@H]2CC[C@@H](OCCO)[C@H](OC)C2)CC(=O)[C@H](C)/C=C(\C)[C@@H](O)[C@@H](OC)C(=O)[C@H](C)C[C@H](C)/C=C/C=C/C=C/1C

{"second drug": "C=CCn1c(=O)c2cnc(Nc3ccc(N4CCN(C)CC4)cc3)nc2n1-c1cccc(C(C)(C)O)n1 at 0.1 µM", "IPC-298": 492, "A101D": 69.9}
{"second drug": "COc1cc(Nc2ncc(F)c(Nc3ccc4c(n3)NC(=O)C(C)(C)O4)n2)cc(OC)c1OC at 2 µM", "IPC-298": 139, "A101D": 343}
{"second drug": "NC(=O)c1ccc(N(C(N)=O)c2c(F)cccc2F)nc1-c1ccc(F)cc1F at 2 µM", "IPC-298": 288, "A101D": 75.2}
{"second drug": "C[C@]12O[C@H](C[C@]1(O)CO)n1c3ccccc3c3c4c(c5c6ccccc6n2c5c31)CNC4=O at 0.02 µM", "IPC-298": 524, "A101D": 97.7}
{"second drug": "Cc1nc(Nc2ncc(C(=O)Nc3c(C)cccc3Cl)s2)cc(N2CCN(CCO)CC2)n1 at 0.02 µM", "IPC-298": 132, "A101D": 89.6}
{"second drug": "CC(C)C[C@H](NC(=O)[C@H](Cc1ccccc1)NC(=O)c1cnccn1)B(O)O at 0.005 µM", "IPC-298": 4410, "A101D": 217}
{"second drug": "C/C(O)=C(\\C#N)C(=O)Nc1cc(Br)ccc1Br at 10 µM", "IPC-298": 103, "A101D": 89.5}
{"second drug": "CC[C@]1(O)C[C@H]2CN(CCc3c([nH]c4ccccc34)[C@@](C(=O)OC)(c3cc4c(cc3OC)N(C=O)[C@H]3[C@@](O)(C(=O)OC)[C@H](OC(C)=O)[C@]5(CC)C=CCN6CC[C@]43[C@@H]65)C2)C1 at 0.0005 µM", "IPC-298": 246, "A101D": 436}
{"second drug": "O=C(Nc1cc(C(F)(F)F)cc(C(F)(F)F)c1)c1cc(Cl)ccc1O at 0.08 µM", "IPC-298": 59.3, "A101D": 86.6}
{"second drug": "O=C(O)c1ccc2c(c1)nc(Nc1cccc(Cl)c1)c1ccncc12 at 2 µM", "IPC-298": 245, "A101D": 75.9}
{"second drug": "C=CCNC1=C2C[C@@H](C)C[C@H](OC)[C@H](O)[C@@H](C)/C=C(\\C)[C@H](OC(N)=O)[C@@H](OC)/C=C\\C=C(/C)C(=O)NC(=CC1=O)C2=O at 0.01 µM", "IPC-298": 242, "A101D": 128}
{"second drug": "NC1(c2ccc(-c3nc4ccn5c(=O)[nH]nc5c4cc3-c3ccccc3)cc2)CCC1 at 2 µM", "IPC-298": 294, "A101D": 110}
{"second drug": "CN1CCN(c2ccc3nc(-c4c(N)c5c(F)cccc5[nH]c4=O)[nH]c3c2)CC1 at 0.5 µM", "IPC-298": 340, "A101D": 219}
{"second drug": "COc1ccc(COc2ccc(Cc3cnc(N)nc3N)cc2OC)cc1 at 5 µM", "IPC-298": 100, "A101D": 210}
{"second drug": "CNC(=O)c1cc(Oc2ccc(NC(=O)Nc3ccc(Cl)c(C(F)(F)F)c3)cc2)ccn1 at 2 µM", "IPC-298": 182, "A101D": 147}
{"second drug": "CCCCCCCCCCCCCCCCCCOP(=O)([O-])OC1CC[N+](C)(C)CC1 at 2 µM", "IPC-298": 85.6, "A101D": 81.7}
{"second drug": "Cn1cncc1[C@@](N)(c1ccc(Cl)cc1)c1ccc2c(c1)c(-c1cccc(Cl)c1)cc(=O)n2C at 0.05 µM", "IPC-298": 87.6, "A101D": 304}
{"second drug": "O=C1NC(=O)/C(=C/c2ccc(-c3ccc(F)cc3O)o2)S1 at 5 µM", "IPC-298": 106, "A101D": 137}
{"second drug": "CN(NC(=O)CC(=O)NN(C)C(=S)c1ccccc1)C(=S)c1ccccc1 at 0.03 µM", "IPC-298": 359, "A101D": 365}
{"second drug": "Oc1cc(-c2nc(-c3ccccc3)[nH]c2-c2ccncc2)ccc1Cl at 1 µM", "IPC-298": 111, "A101D": 311}
{"second drug": "COc1ccc(C2=N[C@@H](c3ccc(Cl)cc3)[C@@H](c3ccc(Cl)cc3)N2C(=O)N2CCNC(=O)C2)c(OC(C)C)c1 at 0.5 µM", "IPC-298": 98.2, "A101D": 217}

The last 2 entries again:

Second drug	IPC-298	A101D
Oc1cc(-c2nc(-c3ccccc3)[nH]c2-c2ccncc2)ccc1Cl at 1 µM	111	311
COc1ccc(C2=N[C@@H](c3ccc(Cl)cc3)[C@@H](c3ccc(Cl)cc3)N2C(=O)N2CCNC(=O)C2)c(OC(C)C)c1 at 0.5 µM	98.2	217